# Source: PubChem BioAssay AID1259415 (National Center for Advancing Translational Sciences (NCATS), 2018)
# The campaign covered roughly 410,000 compounds. About 18,000 (4.4%) were called active. This list was built around the results that the source calls inconclusive (neither active nor inactive); the mix of calls is not that of the screen. No stated cut-off is given here; in the data, active means activity change below about -60%; inconclusive means no clear call, values can overlap the other calls; inactive means above about -39%.
# Test: qHTS Assay for inhibitors of the human cytomegalovirus (HCMV)
# Conditions: HFF cells, HCMV-luciferase reporter, 72 h; at 57.5 µM; stronger effect = lower value
# Summary of the method: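 Luciferase read-out from HCMV-luciferase-infected HFFs (MOI 1 PFU/cell) 72 h post infection at 37C; compounds added after 16 h cell attachment; activity normalized between buffer-only basal and Salinomycin (10uM) inhibitor controls.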
# On the % scale 0 is the no-effect control and ±100 the full control effect.
row,Structure (SMILES),"activity change, negative = inhibition"
1,Cc1ccc(N2CC(C)Cn3c2nc2c3c(=O)n(CC(=O)OCc3ccccc3)c(=O)n2C)cc1C (stereo not drawn),inactive: 33.2%
2,CC(=O)c1cccc(NC(=S)NCCc2ccc(F)cc2)c1,inconclusive: -59.2%
3,O=C(CSc1nnc2ccccn12)N1CCc2ccccc21,inactive: 79.1%
4,Cc1ccc(NC(=O)CCNS(=O)(=O)c2ccccc2F)cc1S(=O)(=O)N1CCOCC1,inconclusive: -41.9%
5,COc1ccccc1NC(=S)N(Cc1ccc(C)cc1)Cc1ccccn1,inactive: -7.66%
6,O=C(CSc1nnc2scc(-c3ccccc3)n12)Nc1nsc(-c2ccccc2)n1,inconclusive: -53%
7,Cc1ccc(C2CCN(C(=O)Nc3ccc(C)c(C)c3)C2)cc1 (stereo not drawn),inconclusive: -55.5%
8,COC(=O)C1=C(C)N(Cc2ccccc2)C(=S)NC1c1ccc(Br)cc1 (stereo not drawn),inactive: 2.03%
9,CCOc1ccc2nc(N(CCCN(C)C)C(=O)c3ccc(S(=O)(=O)N4CCCC4)cc3)sc2c1,inactive: -18.2%
10,Cc1ccc(C(=O)Nc2ccc3[nH]c(=O)c(=O)[nH]c3c2)cc1,inactive: -0.693%
11,Cc1ccc(-n2nc3c(=O)n(CCCC(=O)NC(C)c4ccccc4)nc(C)c3c2C)cc1 (stereo not drawn),inactive: 22.2%
12,Cc1ccc(C(=O)N2CC(=O)Nc3ccc(F)cc3C2c2ccccc2)cc1[N+](=O)[O-] (stereo not drawn),inconclusive: -47.2%
13,CC1CCCN(CC(O)COc2ccc(-c3ccccc3)cc2)C1 (stereo not drawn),inactive: -28.4%
14,COc1ccccc1Cn1cc(C(=O)c2ccc(C)cc2)c(=O)c2cc(F)cc(F)c21,inactive: 10.5%
15,Cc1ccc(N(CC(=O)N2CCc3ccccc3C2)S(C)(=O)=O)cc1,inconclusive: -41.3%
16,Cc1nn(-c2ccc(F)cc2F)c2c1-c1nc(N3CCCC3)ncc1CC2,inconclusive: -56.4%
17,C=CCn1cnc2c(nnn2Cc2ccc(F)cc2)c1=O,inconclusive: -49.2%
18,CCc1ccc(NC(=O)Cn2c(=O)n(-c3cc(C)cc(C)c3)c(=O)c3oc4ccccc4c32)cc1,inconclusive: -43.7%
19,O=C(/C=C/c1ccc(Cl)cc1)NCc1ccco1,active: -64.2%
20,COc1ccc(S(=O)(=O)N2N=C(c3cccc(NS(C)(=O)=O)c3)CC2c2ccco2)cc1 (stereo not drawn),inconclusive: -54.4%
21,O=C(CSc1nnnn1Cc1ccccc1)c1ccc(F)cc1,inconclusive: -41.5%
22,COc1ccc(NC(=O)CSc2ccc3c4c(cccc24)C(=O)c2ccccc2-3)cc1,inconclusive: -55.3%

# Structures above containing a furan ring, fused or not (3):
row,Structure (SMILES),"activity change, negative = inhibition"
18,CCc1ccc(NC(=O)Cn2c(=O)n(-c3cc(C)cc(C)c3)c(=O)c3oc4ccccc4c32)cc1,inconclusive: -43.7%
19,O=C(/C=C/c1ccc(Cl)cc1)NCc1ccco1,active: -64.2%
20,COc1ccc(S(=O)(=O)N2N=C(c3cccc(NS(C)(=O)=O)c3)CC2c2ccco2)cc1 (stereo not drawn),inconclusive: -54.4%

# Going on with the list:

row,Structure (SMILES),"activity change, negative = inhibition"
1,CCSc1nn(CC(=O)Nc2cccc(Cl)c2)c(N)c1S(=O)(=O)c1ccc(OC)cc1,inactive: -4.41%
2,COc1ccc(C(=O)C2CCN(C(=O)c3ccc(F)cc3)CC2)cc1,inconclusive: -44.1%
3,CC(NC(=S)Nc1c(Cl)cccc1OC(F)F)C(C)(C)C (stereo not drawn),inconclusive: -49%
4,CC(C)(C)OC(=O)N(CCc1ccccc1)Cc1ccc(OCc2cccc(NC(=O)C3CCC3)c2)cc1,inconclusive: -41.5%
5,CCn1c(SCC(=O)N2CCc3ccccc32)nnc1-c1c[nH]c2ccccc12,inconclusive: -51.5%
6,CCCCN(CCCC)C(=O)c1cc(Cl)ccc1[N+](=O)[O-],inconclusive: -50.7%
7,O=C(NCc1ccccn1)c1ccc(CNS(=O)(=O)c2ccc(F)cc2)cc1,inconclusive: -46.3%
8,Cc1cnc(NC(=O)COc2cccc3c2OC(C)(C)C3)s1,active: -87.7%
9,CCCCCc1c(-c2ccc(F)cc2F)ncn1CCc1ccccc1OC,inconclusive: -47.8%
10,COc1cccc(C2CC(=O)C3=C(C2)Nc2ccccc2N(C(=O)CCC(=O)O)C3c2ccc(F)cc2)c1 (stereo not drawn),inactive: -33%
11,CCCC(=O)c1ccc(N2CCCCCC2)c(F)c1,inactive: 12.3%
12,CCOC(=O)N1CCC(NC(=O)c2cc(C(=O)NCc3cccc(Cl)c3)ccc2CO)CC1,inactive: -3.79%
13,COc1ccc(C(=O)N2CCSC2=S)cc1OC,inconclusive: -47.8%
14,CC(=O)[C@@]12O[C@@H]1C[C@H]1[C@@H]3CC[C@H]4C[C@@H](O)CC[C@]4(C)[C@H]3CC[C@@]12C,inactive: -16%
15,Cc1ccc(C(C[N+](=O)[O-])Sc2ccc(N)cc2)cc1 (stereo not drawn),active: -100%
16,O=C1CCN(Cc2ccccc2)S(=O)(=O)c2ccc(F)cc21,inconclusive: -48.9%
17,Cc1ccc(N2C(S)=C(C#N)C(=O)NC23CCCCC3)cc1,active: -60.1%
18,CCc1cccc(NC(=O)Cn2nc3c4cc(F)ccc4n(Cc4cccc(C)c4)cc-3c2=O)c1,inactive: 16.7%
19,CCn1cc(C(=O)NCc2ccccn2)c(=O)c2cc(F)c(N3CCN(C)CC3)cc21,inactive: -16.2%
20,COc1ccc(C(CCNCc2ccc(OC(C)C)cc2)C(C)C)cc1 (stereo not drawn),active: -79%
21,C/C(=N\Nc1nc(N2CCCCC2)nc(N2CCOCC2)n1)c1ccccc1O,inconclusive: -47.9%
